These are yes or no findings as the source states them, for the method shown. In cells and extracts the contact can be indirect. A yes stands for co-enrichment or nearness to the bait. Other partners may have been found. Tags and fused reporters may be left off the sequences shown.
B1: Isoform 1 of Voltage-dependent anion-selective channel protein 2 (protein, UniProt P45880-1 1-309)
chain: MSWCNELRLPALKQHSIGRGLESHITMCIPPSYADLGKAARDIFNKGFGFGLVKLDVKTKSCSGVEFSTSGSSNTDTGKVTGTLETKYKWCEYGLTFTEKWNTDNTLGTEIAIEDQICQGLKLTFDTTFSPNTGKKSGKIKSSYKRECINLGCDVDFDFAGPAIHGSAVFGYEGWLAGYQMTFDSAKSKLTRNNFAVGYRTGDFQLHTNVNDGTEFGGSIYQKVCEDLDTSVNLAWTSGTNCTRFGIAAKYQLDPTASISAKVNNSSLIGVGYTQTLRPGVKLTLSALVDGKSINAGGHKVGLALELEA
B2: Ribosome biogenesis regulatory protein homolog (protein, UniProt Q15050 1-365)
chain: MEGQSVEELLAKAEQDEAEKLQRITVHKELELQFDLGNLLASDRNPPTGLRCAGPTPEAELQALARDNTQLLINQLWQLPTERVEEAIVARLPEPTTRLPREKPLPRPRPLTRWQQFARLKGIRPKKKTNLVWDEVSGQWRRRWGYQRARDDTKEWLIEVPGNADPLEDQFAKRIQAKKERVAKNELNRLRNLARAHKMQLPSAAGLHPTGHQSKEELGRAMQVAKVSTASVGRFQERLPKEKVPRGSGKKRKFQPLFGDFAAEKKNQLELLRVMNSKKPQLDVTRATNKQMREEDQEEAAKRRKMSQKGKRKGGRQGPGGKRKGGPPSQGGKRKGGLGGKMNSGPPGLGGKRKGGQRPGGKRRK
B3: Junction plakoglobin (protein, UniProt P14923 1-745)
chain: MEVMNLMEQPIKVTEWQQTYTYDSGIHSGANTCVPSVSSKGIMEEDEACGRQYTLKKTTTYTQGVPPSQGDLEYQMSTTARAKRVREAMCPGVSGEDSSLLLATQVEGQATNLQRLAEPSQLLKSAIVHLINYQDDAELATRALPELTKLLNDEDPVVVTKAAMIVNQLSKKEASRRALMGSPQLVAAVVRTMQNTSDLDTARCTTSILHNLSHHREGLLAIFKSGGIPALVRMLSSPVESVLFYAITTLHNLLLYQEGAKMAVRLADGLQKMVPLLNKNNPKFLAITTDCLQLLAYGNQESKLIILANGGPQALVQIMRNYSYEKLLWTTSRVLKVLSVCPSNKPAIVEAGGMQALGKHLTSNSPRLVQNCLWTLRNLSDVATKQEGLESVLKILVNQLSVDDVNVLTCATGTLSNLTCNNSKNKTLVTQNSGVEALIHAILRAGDKDDITEPAVCALRHLTSRHPEAEMAQNSVRLNYGIPAIVKLLNQPNQWPLVKATIGLIRNLALCPANHAPLQEAAVIPRLVQLLVKAHQDAQRHVAAGTQQPYTDGVRMEEIVEGCTGALHILARDPMNRMEIFRLNTIPLFVQLLYSSVENIQRVAAGVLCELAQDKEAADAIDAEGASAPLMELLHSRNEGTATYAAAVLFRISEDKNPDYRKRVSVELTNSLFKHDPAAWEAAQSMIPINEPYGDDMDATYRPMYSSDVPLDPLEMHMDMDGDYPIDTYSDGLRPPYPTADHMLA
B4: Ladinin-1 (protein, UniProt O00515 1-517)
chain: MAVSRKDWSALSSLARQRTLEDEEEQERERRRRHRNLSSTTDDEAPRLSQNGDRQASASERLPSVEEAEVPKPLPPASKDEDEDIQSILRTRQERRQRRQVVEAAQAPIQERLEAEEGRNSLSPVQATQKPLVSKKELEIPPRRRLSREQRGPWALEEESLVGREPEERKKGVPEKSPVLEKSSMPKKTAPEKSLVSDKTSISEKVLASEKTSLSEKIAVSEKRNSSEKKSVLEKTSVSEKSLAPGMALGSGRRLVSEKASIFEKALASEKSPTADAKPAPKRATASEQPLAQEPPASGGSPATTKEQRGRALPGKNLPSLAKQGASDPPTVASRLPPVTLQVKIPSKEEEADMSSPTQRTYSSSLKRSSPRTISFRMKPKKENSETTLTRSASMKLPDNTVKLGEKLERYHTAIRRSESVKSRGLPCTELFVAPVGVASKRHLFEKELAGQSRAEPASSRKENLRLSGVVTSRLNLWISRTQESGDQDPQEAQKASSATERTQWGQKSDSSLDAEV
B5: Isoform 3 of La-related protein 7 (protein, UniProt Q4G0J3-3 1-589)
chain: MIPNIEGMETESGNQEKVMEEESTEKKKEVEKKKRSRVKQVLADIAKQVDFWFGDANLHKDRFLREQIEKSRDGYVDISLLVSFNKMKKLTTDGKLIARALRSSAVVELDLEGTRIRRKKPLGERPKDEDERTVYVELLPKNVNHSWIERVFGKCGNVVYISIPHYKSTGDPKGFAFVEFETKEQAAKAIEFLNNPPEEAPRKPGIFPKTVKNKPIPALRVVEEKKKKKKKKGRMKKEDNIQAKEENMDTSNTSISKMKRSRPTSEGSDIESTEPQKQCSKKKKKRDRVEASSLPEVRTGKRKRSSSEDAESLAPRSKVKKIIQKDIIKEASEASKENRDIEISTEEEKDTGDLKDSSLLKTKRKHKKKHKERHKMGEEVIPLRVLSKSEWMDLKKEYLALQKASMASLKKTISQIKSESEMETDSGVPQNTGMKNEKTANREECRTQEKVNATGPQFVSGVIVKIISTEPLPGRKQVRDTLAAISEVLYVDLLEGDTECHARFKTPEDAQAVINAYTEINKKHCWKLEILSGDHEQRYWQKILVDRQAKLNQPREKKRGTEKLITKAEKIRLAKTQQASKHIRFSEYD
B6: Matrin-3 (protein, UniProt P43243 1-847)
chain: MSKSFQQSSLSRDSQGHGRDLSAAGIGLLAAATQSLSMPASLGRMNQGTARLASLMNLGMSSSLNQQGAHSALSSASTSSHNLQSIFNIGSRGPLPLSSQHRGDADQASNILASFGLSARDLDELSRYPEDKITPENLPQILLQLKRRRTEEGPTLSYGRDGRSATREPPYRVPRDDWEEKRHFRRDSFDDRGPSLNPVLDYDHGSRSQESGYYDRMDYEDDRLRDGERCRDDSFFGETSHNYHKFDSEYERMGRGPGPLQERSLFEKKRGAPPSSNIEDFHGLLPKGYPHLCSICDLPVHSNKEWSQHINGASHSRRCQLLLEIYPEWNPDNDTGHTMGDPFMLQQSTNPAPGILGPPPPSFHLGGPAVGPRGNLGAGNGNLQGPRHMQKGRVETSRVVHIMDFQRGKNLRYQLLQLVEPFGVISNHLILNKINEAFIEMATTEDAQAAVDYYTTTPALVFGKPVRVHLSQKYKRIKKPEGKPDQKFDQKQELGRVIHLSNLPHSGYSDSAVLKLAEPYGKIKNYILMRMKSQAFIEMETREDAMAMVDHCLKKALWFQGRCVKVDLSEKYKKLVLRIPNRGIDLLKKDKSRKRSYSPDGKESPSDKKSKTDGSQKTESSTEGKEQEEKSGEDGEKDTKDDQTEQEPNMLLESEDELLVDEEEAAALLESGSSVGDETDLANLGDVASDGKKEPSDKAVKKDGSASAAAKKKLKKVDKIEELDQENEAALENGIKNEENTEPGAESSENADDPNKDTSENADGQSDENKDDYTIPDEYRIGPYQPNVPVGIDYVIPKTGFYCKLCSLFYTNEEVAKNTHCSSLPHYQKLKKFLNKLAEERRQKKET
B7: WD repeat-containing protein 46 (protein, UniProt O15213 1-610)
chain: METAPKPGKDVPPKKDKLQTKRKKPRRYWEEETVPTTAGASPGPPRNKKNRELRPQRPKNAYILKKSRISKKPQVPKKPREWKNPESQRGLSGTQDPFPGPAPVPVEVVQKFCRIDKSRKLPHSKAKTRSRLEVAEAEEEETSIKAARSELLLAEEPGFLEGEDGEDTAKICQADIVEAVDIASAAKHFDLNLRQFGPYRLNYSRTGRHLAFGGRRGHVAALDWVTKKLMCEINVMEAVRDIRFLHSEALLAVAQNRWLHIYDNQGIELHCIRRCDRVTRLEFLPFHFLLATASETGFLTYLDVSVGKIVAALNARAGRLDVMSQNPYNAVIHLGHSNGTVSLWSPAMKEPLAKILCHRGGVRAVAVDSTGTYMATSGLDHQLKIFDLRGTYQPLSTRTLPHGAGHLAFSQRGLLVAGMGDVVNIWAGQGKASPPSLEQPYLTHRLSGPVHGLQFCPFEDVLGVGHTGGITSMLVPGAGEPNFDGLESNPYRSRKQRQEWEVKALLEKVPAELICLDPRALAEVDVISLEQGKKEQIERLGYDPQAKAPFQPKPKQKGRSSTASLVKRKRKVMDEEHRDKVRQSLQQQHHKEAKAKPTGARPSALDRFVR
B8: Zyxin (protein, UniProt Q15942 1-572)
chain: MAAPRPSPAISVSVSAPAFYAPQKKFGPVVAPKPKVNPFRPGDSEPPPAPGAQRAQMGRVGEIPPPPPEDFPLPPPPLAGDGDDAEGALGGAFPPPPPPIEESFPPAPLEEEIFPSPPPPPEEEGGPEAPIPPPPQPREKVSSIDLEIDSLSSLLDDMTKNDPFKARVSSGYVPPPVATPFSSKSSTKPAAGGTAPLPPWKSPSSSQPLPQVPAPAQSQTQFHVQPQPQPKPQVQLHVQSQTQPVSLANTQPRGPPASSPAPAPKFSPVTPKFTPVASKFSPGAPGGSGSQPNQKLGHPEALSAGTGSPQPPSFTYAQQREKPRVQEKQHPVPPPAQNQNQVRSPGAPGPLTLKEVEELEQLTQQLMQDMEHPQRQNVAVNELCGRCHQPLARAQPAVRALGQLFHIACFTCHQCAQQLQGQQFYSLEGAPYCEGCYTDTLEKCNTCGEPITDRMLRATGKAYHPHCFTCVVCARPLEGTSFIVDQANRPHCVPDYHKQYAPRCSVCSEPIMPEPGRDETVRVVALDKNFHMKCYKCEDCGKPLSIEADDNGCFPLDGHVLCRKCHTARAQT
B9: Isoform 3 of Drebrin (protein, UniProt Q16643-3 1-695)
chain: MAGVSFSGHRLELLAAYEEVIREESAADWALYTYEDGSDDLKLAASGEGGLQELSGHFENQKVMYGFCSVKDSQAALPKYVLINWVGEDVPDARKCACASHVAKVAEFFQGVDVIVNASSVEDIDAGAIGQRLSNGLARLSSPVLHRLRLREDENAEPVGTTYQKTDAAVEMKRINREQFWEQAKKEEELRKEEERKKALDERLRFEQERMEQERQEQEERERRYREREQQIEEHRRKQQTLEAEEAKRRLKEQSIFGDHRDEEEETHMKKSESEVEEAAAIIAQRPDNPREFFKQQERVASASAGSCDVPSPFNHRPGRPYCPFIKASDSGPSSSSSSSSSPPRTPFPYITCHRTPNLSSSLPCSHLDSHRRMAPTPIPTRSPSDSSTASTPVAEQIERALDEVTSSQPPPLPPPPPPAQETQEPSPILDSEETRAAAPQAWAGPMEEPPQAQAPPRGPGSPAEDLMFMESAEQAVLAAPVEPATADATEIHDAADTIETDTATADTTVANNVPPAATSLIDLWPGNGEGASTLQGEPRAPTPPSGTEVTLAEVPLLDEVAPEPLLPAGEGCATLLNFDELPEPPATFCDPEEVEGESLAAPQTPTLPSALEELEQEQEPEPHLLTNGETTQKEGTQASEGYFSQSQEEEFAQSEELCAKAPPPVFYNKPPEIDITCWDADPVPEEEEGFEGGD

By UniProt entry, the sequences of proteins in these tests, tags left out.
UniProt Q05397: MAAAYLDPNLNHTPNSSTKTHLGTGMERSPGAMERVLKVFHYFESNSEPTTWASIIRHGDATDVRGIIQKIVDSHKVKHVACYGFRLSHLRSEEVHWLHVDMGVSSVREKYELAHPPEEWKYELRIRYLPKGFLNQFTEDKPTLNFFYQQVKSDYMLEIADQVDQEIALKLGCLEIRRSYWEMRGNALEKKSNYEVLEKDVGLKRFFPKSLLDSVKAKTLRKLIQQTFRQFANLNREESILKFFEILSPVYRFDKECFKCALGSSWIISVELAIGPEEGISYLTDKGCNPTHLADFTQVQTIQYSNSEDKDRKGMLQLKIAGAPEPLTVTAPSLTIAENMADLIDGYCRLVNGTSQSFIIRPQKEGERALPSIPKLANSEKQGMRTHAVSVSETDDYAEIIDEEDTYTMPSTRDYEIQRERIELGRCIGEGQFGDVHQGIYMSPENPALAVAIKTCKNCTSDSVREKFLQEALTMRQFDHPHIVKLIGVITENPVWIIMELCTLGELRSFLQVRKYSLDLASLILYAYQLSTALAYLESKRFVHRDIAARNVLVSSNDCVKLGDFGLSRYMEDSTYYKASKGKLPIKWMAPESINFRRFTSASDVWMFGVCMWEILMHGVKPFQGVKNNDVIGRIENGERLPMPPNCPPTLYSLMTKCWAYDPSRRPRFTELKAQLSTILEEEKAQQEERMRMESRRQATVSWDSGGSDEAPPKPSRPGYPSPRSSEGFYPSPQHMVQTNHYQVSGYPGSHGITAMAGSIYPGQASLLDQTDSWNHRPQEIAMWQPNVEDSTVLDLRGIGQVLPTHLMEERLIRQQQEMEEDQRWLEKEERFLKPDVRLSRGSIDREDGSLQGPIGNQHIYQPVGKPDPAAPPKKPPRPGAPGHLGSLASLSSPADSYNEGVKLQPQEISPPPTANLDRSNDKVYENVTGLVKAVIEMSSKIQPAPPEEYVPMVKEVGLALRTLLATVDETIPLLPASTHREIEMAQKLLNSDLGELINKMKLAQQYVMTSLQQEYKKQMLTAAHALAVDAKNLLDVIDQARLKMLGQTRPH

molecular target: Focal adhesion kinase 1 (human (endogenous in HCT-116)) (UniProt Q05397); experiment: affinity purification with mass spectrometry; anti-FAK polyclonal antibody and Protein A/G agarose on 1.5 mg HCT-116 total cell lysate, cells untreated (regular IP) or stimulated with 10 ng/ml EGF for 30 min; rabbit IgG as control; 1D SDS-PAGE, in-gel trypsin digestion, nano-LC-MS/MS; the proteins of Table 2 were found only with EGF …

binding, binds:
B1, B2, B3, B4, B5, B6, B7, B8, B9

From article PMC6733923
